Results are given in words; binding and its absence hold for the method and conditions named. Binding seen in cells or lysates may run through a third protein. A result given as binding can be weak or reduced; the word gives no strength.
Assays:
ZNRF3ΔRING = ZNRF3ΔRING (UniProt Q9ULT6); experiment: co-IP; both partners expressed in transfected HEK293T cells (FZD5-USP8 also in T79KO cells and with TMEM79 overexpressed; USP8-TMEM79 in FZD null cells); NP40 lysis buffer (50 mM Tris pH 7.5, 150 mM NaCl, 1 mM EDTA, 1% NP40, 10% glycerol, 10 mM NaF); antibody-conjugated agarose beads (anti-c-Myc, anti-HA, anti-Flag M2 or anti-V5) at 4°C overnight; five washes; immunoblot
USP8CΔ = experiment: as above

Chains of the proteins cited; added tags and fusions are not shown. Lines headed by an entry give the natural chain unless they say otherwise; changes in a name come on top. Residues count along the entry.
UniProt Q9ULT6: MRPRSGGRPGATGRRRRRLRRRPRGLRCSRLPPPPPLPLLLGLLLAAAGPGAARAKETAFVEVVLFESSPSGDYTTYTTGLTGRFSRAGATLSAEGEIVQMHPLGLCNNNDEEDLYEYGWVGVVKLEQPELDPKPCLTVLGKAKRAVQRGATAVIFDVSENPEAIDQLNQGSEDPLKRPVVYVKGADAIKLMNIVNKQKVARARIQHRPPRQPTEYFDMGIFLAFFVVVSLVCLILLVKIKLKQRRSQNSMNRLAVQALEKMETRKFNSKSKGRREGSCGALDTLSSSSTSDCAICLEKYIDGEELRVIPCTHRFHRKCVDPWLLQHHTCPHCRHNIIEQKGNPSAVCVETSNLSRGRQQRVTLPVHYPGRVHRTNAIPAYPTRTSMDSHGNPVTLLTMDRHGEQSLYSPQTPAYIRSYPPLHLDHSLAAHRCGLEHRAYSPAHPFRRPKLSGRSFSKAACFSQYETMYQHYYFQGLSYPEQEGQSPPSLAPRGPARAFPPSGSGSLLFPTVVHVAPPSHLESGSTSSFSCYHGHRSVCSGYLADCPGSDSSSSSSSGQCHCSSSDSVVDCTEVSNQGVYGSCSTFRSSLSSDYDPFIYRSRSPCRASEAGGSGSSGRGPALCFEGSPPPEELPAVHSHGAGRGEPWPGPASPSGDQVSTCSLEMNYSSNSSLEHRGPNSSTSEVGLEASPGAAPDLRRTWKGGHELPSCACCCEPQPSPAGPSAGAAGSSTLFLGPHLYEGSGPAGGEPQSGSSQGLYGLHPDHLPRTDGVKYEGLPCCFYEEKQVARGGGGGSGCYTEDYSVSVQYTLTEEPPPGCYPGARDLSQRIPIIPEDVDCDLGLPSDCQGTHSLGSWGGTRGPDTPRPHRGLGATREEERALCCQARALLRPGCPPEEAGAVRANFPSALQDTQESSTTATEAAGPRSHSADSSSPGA
UniProt Q13467, residues 27-585: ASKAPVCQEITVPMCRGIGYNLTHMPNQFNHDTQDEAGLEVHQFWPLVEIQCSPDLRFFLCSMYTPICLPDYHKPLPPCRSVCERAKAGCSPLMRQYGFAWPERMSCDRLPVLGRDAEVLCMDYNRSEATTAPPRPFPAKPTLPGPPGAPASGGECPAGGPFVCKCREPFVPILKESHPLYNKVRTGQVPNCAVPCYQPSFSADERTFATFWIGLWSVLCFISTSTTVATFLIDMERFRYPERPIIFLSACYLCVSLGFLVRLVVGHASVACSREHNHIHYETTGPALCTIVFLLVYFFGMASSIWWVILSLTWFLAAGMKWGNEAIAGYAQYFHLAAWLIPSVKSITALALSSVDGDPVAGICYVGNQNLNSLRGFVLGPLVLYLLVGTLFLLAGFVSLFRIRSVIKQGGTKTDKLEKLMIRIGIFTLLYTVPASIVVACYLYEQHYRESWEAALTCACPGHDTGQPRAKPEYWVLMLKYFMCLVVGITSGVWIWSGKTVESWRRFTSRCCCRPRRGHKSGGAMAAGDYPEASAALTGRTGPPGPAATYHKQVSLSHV

In the case of “FZD5 (transfected) (from UniProt Q13467 27-585) (receptor)”, the binding (ZNRF3ΔRING) is reported as “binds”.

B1: TMEM79 (FL, full length) (protein, UniProt Q9D709 1-391)
chain: MTEPETLALLDMKEPETPEKSPPQALVLQSEEEGGTESPGTESLRVGSSVGSPIVREGPEDGPDSTISEAATLPWGTDPHPSAPLPDPPGWRDIEPEPLESEAPTKSEEPFKEDANLLPEKTVRAFVPIDLQCIERKPQEERILHRDAGPGELRNFLPARLSHPEPPERKWAEAVVRPPGRSCGGCGSCGGREALRAVASVVAALIFFPCLLYGAYAFLPFDAPRLPTMSSRLVYTLRCGVFATFPIVLGLLVYGLSLLCFSALRPFGEPRREVEIHRQYVAQSVQLFILYFFNLAVLSTYLPQDTLKLLPLLTGLFAISRLIYWLTFAVGRSFRGFGYGLTFLPLLAMLVWNLYYMFVVEPERMLTASESRLDYPDHARSVSDYRPRSWG
With B1 the binding (USP8CΔ) was “binds”.

— PMC7521923
